# The list does not hold the whole screen: it gathers tests that were run many times, whatever their T/C, doses with no T/C, and many T/C values between a quarter and a half above the control. Further doses and runs are listed elsewhere. T/C: endpoint of the treated group in % of that of the vehicle group. Some doses have a count of surviving animals in place of a T/C: the source holds a T/C of zero for them, seemingly a mark for toxic or unscored doses. Some doses without a T/C left all or most animals alive at the check, yet need not have been tolerated: the source hardly ever lists a survival T/C far under the control, and the zero likely stands for such cases as well. Counts of survivors are from the toxicity check (mostly the fifth day) where no day follows; animals may have died later. Schedules are NCI's codes, read here as Q, the interval in days (D) or hours (H), X, the number of doses. Brackets with × give the number of equal values in this list. Some schedule codes hold Z or #, which are not explained here. Where survival is the endpoint, the PubChem record calls one and a half times the control and up active, and a quarter to a half above the control has no call in these data; cut-offs in other NCI protocols can differ. Some entries were tested several times; the results are listed from low to high. Some T/C values are followed by the survivors on the day toxicity was checked, most often the fifth; where none is given, no animal had died by that day.
# Test system: L1210 leukemia ip in BDF1 mice, survival T/C
# Assay: NCI In Vivo Anticancer Drug Screen. Data for tumor model L1210 Leukemia (intraperitoneal) in B6D2F1 (BDF1) mice
# Details: T/C endpoint: mean survival time, higher T/C = longer survival
# [1] = dose: 400.0 mg/kg/injection, schedule: Q01DX009 (ip), vehicle: saline with Tween-80
# [2] = dose: 200.0 mg/kg/injection, schedule: Q04DX003 (ip), vehicle: saline
# [3] = dose: 400.0 mg/kg/injection, schedule: Q04DX003 (ip), vehicle: saline
# [4] = dose: 400.0 mg/kg/injection, schedule: Q01DX009 (ip), vehicle: Klucel (hydroxypropylcellulose) (HPC)
# [5] = dose: 75.0 mg/kg/injection, schedule: Q01DX001 (ip), vehicle: saline
# [6] = dose: 150.0 mg/kg/injection, schedule: Q01DX001 (ip), vehicle: saline
# [7] = dose: 300.0 mg/kg/injection, schedule: Q01DX001 (ip), vehicle: saline
# [8] = dose: 400.0 mg/kg/injection, schedule: Q04DX003 (ip), vehicle: Klucel (hydroxypropylcellulose) (HPC)
# [9] = dose: 200.0 mg/kg/injection, schedule: Q01DX009 (ip), vehicle: Klucel (hydroxypropylcellulose) (HPC)
# [10] = dose: 400.0 mg/kg/injection, schedule: Q04DX003 (ip), vehicle: saline with Tween-80
# [11] = dose: 200.0 mg/kg/injection, schedule: Q04DX003 (ip), vehicle: Klucel (hydroxypropylcellulose) (HPC)
# [12] = dose: 200.0 mg/kg/injection, schedule: Q04DX002 (ip), vehicle: Klucel (hydroxypropylcellulose) (HPC)
# [13] = dose: 200.0 mg/kg/injection, schedule: Q04DX003 (ip), vehicle: saline with Tween-80
smiles,measurement,setting,value
NSc1nc2ccccc2s1,survivor count,[1],3 of 6
CC[N+](CC)(CC)CCOC(=O)C1C2CC3OC(=O)C1C3C2 (centres undefined),survivor count,[2],3 of 3
same,survivor count,[3],0 of 3
O=C(CC(O)(C(F)(F)F)C(F)(F)F)c1ccccc1[N+](=O)[O-],survivor count,"dose: 50.0 mg/kg/injection, schedule: Q01DX009 (ip), vehicle: DMSO",6 of 6
same,survivor count,"dose: 200.0 mg/kg/injection, schedule: Q04DX003 (ip), vehicle: DMSO",0 of 6
same,survivor count,"dose: 400.0 mg/kg/injection, schedule: Q04DX003 (ip), vehicle: DMSO",0 of 6
CN(C)C(=O)OCC[N+](C)(C)CCCCCCCCCC[N+](C)(C)CCOC(=O)N(C)C,survivor count,"dose: 10.0 mg/kg/injection, schedule: Q04DX003 (ip), vehicle: saline",0 of 6
same,survivor count,"dose: 20.0 mg/kg/injection, schedule: Q04DX003 (ip), vehicle: saline",0 of 6
same,survivor count,"dose: 100.0 mg/kg/injection, schedule: Q04DX003 (ip), vehicle: saline",0 of 6
same,survivor count,[2],0 of 6
same,survivor count,[3],0 of 6
CN(C)NC(=O)/C=C/c1ccccc1,survivor count,[4],0 of 6
CCCCN(C)/N=N/c1[nH]ncc1C(=O)OCC,T/C,"dose: 118.0 mg/kg/injection, schedule: Q01DX007 (ip), vehicle: saline",126 % of control
same,T/C,"dose: 118.0 mg/kg/injection, schedule: Q01DX009 (ip), vehicle: other",145 % of control
same,T/C,"dose: 177.0 mg/kg/injection, schedule: Q01DX007 (ip), vehicle: saline",140 % of control
same,T/C,"dose: 177.0 mg/kg/injection, schedule: Q01DX009 (ip), vehicle: other",138 and 148 % of control
same,T/C,"dose: 400.0 mg/kg/injection, schedule: Q01DX009 (ip), vehicle: other",129 % of control
same,survivor count,"dose: 600.0 mg/kg/injection, schedule: Q01DX007 (ip), vehicle: saline",4 of 6
same,survivor count,"dose: 600.0 mg/kg/injection, schedule: Q01DX009 (ip), vehicle: other",3 of 6
CN(C)P1(=O)OCCN1N (centres undefined),survivor count,[3],1 of 6
CN(C(=O)NCCCl)C1CCCCC1,survivor count,"dose: 150.0 mg/kg/injection, schedule: Q01DX001 (ip), vehicle: carboxymethylcellulose (CMC)",0 of 6
same,survivor count,"dose: 300.0 mg/kg/injection, schedule: Q01DX001 (ip), vehicle: carboxymethylcellulose (CMC)",0 of 6
CCCCCCCCCC[n+]1ccc(C#N)cc1,survivor count,[5],0 of 6
same,survivor count,[6],0 of 6
same,survivor count,[7],0 of 6
Cc1ccc(C(C)C)cc1NC(=O)NCCCl,survivor count,[8],2 of 6
OCC1OC(n2cnc3c([Se]Cc4ccccc4)ncnc32)C(O)C1O (centres undefined),survivor count,"dose: 25.0 mg/kg/injection, schedule: Q01DX005 (ip), vehicle: saline",0 of 6
same,survivor count,"dose: 25.0 mg/kg/injection, schedule: Q01DX009 (ip), vehicle: saline",0 of 6
same,survivor count,"dose: 50.0 mg/kg/injection, schedule: Q01DX005 (ip), vehicle: saline",0 of 6
same,survivor count,"dose: 50.0 mg/kg/injection, schedule: Q01DX009 (ip), vehicle: saline",0 of 6
same,survivor count,"dose: 100.0 mg/kg/injection, schedule: Q01DX009 (ip), vehicle: saline",0 of 6
Cc1ccc(SC2CC3CC2C2COCC32)cc1 (centres undefined),survivor count,[9],0 of 6
same,survivor count,[8],3 of 6
NC(=S)N/N=C/c1ccncc1,survivor count,[3],1 of 6
CCN(CC)CCNC(=O)c1ccc2nc(N)sc2c1,survivor count,[7],0 of 6
COC(=O)C(CCC(=O)CCl)N1C(=O)c2ccccc2C1=O (centres undefined),survivor count,[10],2 of 6
CC(=O)c1ccc(Cl)c([N+](=O)[O-])c1,survivor count,[4],6 of 6
[O-][n+]1c2ccc(Cl)cc2nc2ccc(Cl)cc21,survivor count,[11],6 of 6
same,survivor count,[8],6 of 6
O=C(O)C#Cc1ccccc1,survivor count,"dose: 200.0 mg/kg/injection, schedule: Q01DX001 (ip), vehicle: saline",1 of 6
same,survivor count,"dose: 400.0 mg/kg/injection, schedule: Q01DX001 (ip), vehicle: saline",2 of 6
CCOP(=O)(OCC)O/N=C(/SC)C(C)C,survivor count,[5],3 of 6
same,survivor count,[6],0 of 6
same,survivor count,[7],0 of 6
CCN(CC)CCOC(=O)C(S)(c1ccccc1)c1ccccc1,survivor count,"dose: 150.0 mg/kg/injection, schedule: Q01DX001 (ip), vehicle: other",2 of 6
same,survivor count,"dose: 300.0 mg/kg/injection, schedule: Q01DX001 (ip), vehicle: other",0 of 6
Cc1c(C(=O)Nc2ccc(C3=NCCN3)cc2)cccc1C(=O)Nc1ccc(C2=NCCN2)cc1,T/C,"dose: 190.0 mg/kg/injection, schedule: Q01DX Z (ip), vehicle: carboxymethylcellulose (CMC)",129 % of control [4 of 6 alive]
same,survivor count,"dose: 380.0 mg/kg/injection, schedule: Q01DX Z (ip), vehicle: carboxymethylcellulose (CMC)",0 of 6
CC(C)=NOS(=O)(=O)c1c(C)cc(C)cc1C,survivor count,[12],3 of 3
O=C(c1ccccc1)C1C(c2ccccc2)N1Cc1ccccc1 (centres undefined),survivor count,[9],6 of 6
same,survivor count,[4],0 of 6
same,survivor count,[8],3 of 6
Oc1ccc(O)c2[nH]c(-c3ccc(Cl)cc3)cc12,survivor count,"dose: 100.0 mg/kg/injection, schedule: Q04DX002 (ip), vehicle: Klucel (hydroxypropylcellulose) (HPC)",0 of 3
same,survivor count,[12],0 of 3
same,survivor count,"dose: 400.0 mg/kg/injection, schedule: Q04DX002 (ip), vehicle: Klucel (hydroxypropylcellulose) (HPC)",0 of 3
CC(NC(=O)NCCCl)c1ccccc1 (centres undefined),survivor count,[13],2 of 6
same,survivor count,[10],0 of 6 (2×)
C/C=C/C1N(C)CCCN1C,survivor count,"dose: 100.0 mg/kg/injection, schedule: Q01DX009 (ip), vehicle: saline with Tween-80",3 of 6
same,survivor count,"dose: 100.0 mg/kg/injection, schedule: Q04DX003 (ip), vehicle: saline with Tween-80",4 of 6
same,survivor count,[13],0 of 6
same,survivor count,[10],0 of 6
C[n+]1ccccc1CCC(=O)Nc1ccccc1,survivor count,"dose: 200.0 mg/kg/injection, schedule: Q01DX009 (ip), vehicle: saline with Tween-80",2 of 6
same,survivor count,[1],0 of 6
CN(C)c1ncnc2c1ncn2C1OC(CO)C2NP(=O)(N(CCCl)CCCl)OC21 (centres undefined),survivor count,[7],3 of 6
Fc1nc(F)nc(F)n1,survivor count,"dose: 100.0 mg/kg/injection, schedule: Q01DX009 (ip), vehicle: Klucel (hydroxypropylcellulose) (HPC)",0 of 6
same,survivor count,[9],0 of 6
same,survivor count,[4],0 of 6
O=[N+]([O-])c1ccc2conc2c1,survivor count,"dose: 400.0 mg/kg/injection, schedule: Q01DX001 (ip), vehicle: carboxymethylcellulose (CMC)",2 of 4
O=[N+]([O-])c1ccc([N+](=O)[O-])c2nsnc12,survivor count,"dose: 50.0 mg/kg/injection, schedule: Q04DX003 (ip), vehicle: Klucel (hydroxypropylcellulose) (HPC)",6 of 6
same,survivor count,"dose: 100.0 mg/kg/injection, schedule: Q04DX003 (ip), vehicle: Klucel (hydroxypropylcellulose) (HPC)",1 of 6
same,survivor count,[11],0 of 6
same,survivor count,[8],0 of 6
COc1ccc(S(=O)(=O)F)cc1NC(=O)CCc1ccc(N2C(N)=NC(N)=NC2(C)C)cc1,survivor count,"dose: 400.0 mg/kg/injection, schedule: Q01DX001 (ip), vehicle: gum acacia",0 of 6
O=[N+]([O-])c1ccc(N/N=C/C23CC4CC(CC(C4)C2)C3)c([N+](=O)[O-])c1,survivor count,"dose: 200.0 mg/kg/injection, schedule: Q01DX001 (ip), vehicle: Klucel (hydroxypropylcellulose) (HPC)",3 of 3

# Source: PubChem BioAssay AID248 (DTP/NCI, 2004)
